Record: PubChem BioAssay AID1224830 (NIAID, 2016)
The deposit covers about 18,000 reagents; this is an unselected part. About 2,900 of them (16%) count as active. 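Calls are made per well; low scores hint the gene aids the LPS response, high scores that it dampens it.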 A number with no mark means an inactive call. Repeated entries: four replicate wells of each siRNA pool.

Assay: 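Host factors that control LPS-induced TNF expression in human macrophages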 (primary screen)
Cell system: human THP-1 monocytic leukaemia cells, TNF dual-luciferase reporter clone, PMA-differentiated to macrophage-like cells
Knock-down reagent: siRNA pool against human genes, 50 nM
Timing: LPS for 4 h, given about 3 days after siRNA transfection
Treatment: bacterial LPS (TLR4 ligand), 10 ng/ml
Measured: 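TNF firefly reporter luminescence divided by renilla, normalised to the plate median, then turned into a robust z-score for each replicate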
Direction: TNF reporter robust z-score: higher = stronger TNF reporter response to LPS
Rule for the call: 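Each well counts as active if its z-score is over 2.8 or under -1.5; controls are left without a call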

gene | TNF reporter robust z-score
ZNF197 (zinc finger protein 197) | -0.94
ZNF197 (zinc finger protein 197) | -0.68
ZNF197 (zinc finger protein 197) | 0.22
ZNF197 (zinc finger protein 197) | 1.14
DAPK1 (death associated protein kinase 1) | -0.09
DAPK1 (death associated protein kinase 1) | -0.58
DAPK1 (death associated protein kinase 1) | -0.62
DAPK1 (death associated protein kinase 1) | 0.38
ZNF683 (zinc finger protein 683) | -0.94
ZNF683 (zinc finger protein 683) | -0.57
ZNF683 (zinc finger protein 683) | -0.99
ZNF683 (zinc finger protein 683) | -0.7
CFAP141 (cilia and flagella associated protein 141) | -1.43
CFAP141 (cilia and flagella associated protein 141) | -1.31
CFAP141 (cilia and flagella associated protein 141) | -1.02
CFAP141 (cilia and flagella associated protein 141) | -1.09
HSFY1 (heat shock transcription factor Y-linked 1) | 0.88
HSFY1 (heat shock transcription factor Y-linked 1) | 1.36
HSFY1 (heat shock transcription factor Y-linked 1) | 0.74
HSFY1 (heat shock transcription factor Y-linked 1) | 0.4
EMILIN2 (elastin microfibril interfacer 2) | 0.96
EMILIN2 (elastin microfibril interfacer 2) | 1.3
EMILIN2 (elastin microfibril interfacer 2) | 2.56
EMILIN2 (elastin microfibril interfacer 2) | -0.93
FCRL3 (Fc receptor like 3) | -0.77
FCRL3 (Fc receptor like 3) | 0.74
FCRL3 (Fc receptor like 3) | -0.5
FCRL3 (Fc receptor like 3) | 0.32
SERF2 (small EDRK-rich factor 2) | -0.45
SERF2 (small EDRK-rich factor 2) | -0.74
SERF2 (small EDRK-rich factor 2) | -0.86
SERF2 (small EDRK-rich factor 2) | -0.57
TRIM72 (tripartite motif containing 72) | -0.68
TRIM72 (tripartite motif containing 72) | -0.1
TRIM72 (tripartite motif containing 72) | -1.46
TRIM72 (tripartite motif containing 72) | 0.22
FREM1 (FRAS1 related extracellular matrix 1) | -0.13
FREM1 (FRAS1 related extracellular matrix 1) | 0.68
FREM1 (FRAS1 related extracellular matrix 1) | 0.86
FREM1 (FRAS1 related extracellular matrix 1) | 1.32

Targets above whose target name begins with T or t (4):
gene | TNF reporter robust z-score
TRIM72 (tripartite motif containing 72) | -0.68
TRIM72 (tripartite motif containing 72) | -0.1
TRIM72 (tripartite motif containing 72) | -1.46
TRIM72 (tripartite motif containing 72) | 0.22

The results go on.
gene | TNF reporter robust z-score
EAPP (E2F associated phosphoprotein) | -1.42
EAPP (E2F associated phosphoprotein) | -0.5
EAPP (E2F associated phosphoprotein) | -0.91
EAPP (E2F associated phosphoprotein) | 1.86
RASSF3 (Ras association domain family member 3) | 1.94
RASSF3 (Ras association domain family member 3) | 2.13
RASSF3 (Ras association domain family member 3) | 1.29
RASSF3 (Ras association domain family member 3) | 2.42
SOX7 (SRY-box transcription factor 7) | 0.7
SOX7 (SRY-box transcription factor 7) | 0.69
SOX7 (SRY-box transcription factor 7) | -0.24
SOX7 (SRY-box transcription factor 7) | 1.2
POT1 (protection of telomeres 1) | -0.57
POT1 (protection of telomeres 1) | -0.37
POT1 (protection of telomeres 1) | -0.5
POT1 (protection of telomeres 1) | -0.51
ZNF764 (zinc finger protein 764) | -1.39
ZNF764 (zinc finger protein 764) | -0.88
ZNF764 (zinc finger protein 764) | -0.01
ZNF764 (zinc finger protein 764) | -0.39
PSTK (phosphoseryl-tRNA kinase) | -0.59
PSTK (phosphoseryl-tRNA kinase) | 0.62
PSTK (phosphoseryl-tRNA kinase) | -1.37
PSTK (phosphoseryl-tRNA kinase) | 0.27
PARD3B (par-3 family cell polarity regulator beta) | -0.39
PARD3B (par-3 family cell polarity regulator beta) | -0.36
PARD3B (par-3 family cell polarity regulator beta) | -0.52
PARD3B (par-3 family cell polarity regulator beta) | 0.84
UROD (uroporphyrinogen decarboxylase) | -0.92
UROD (uroporphyrinogen decarboxylase) | -0.62
UROD (uroporphyrinogen decarboxylase) | -1.17
UROD (uroporphyrinogen decarboxylase) | -0.99
BLVRA (biliverdin reductase A) | -0.52
BLVRA (biliverdin reductase A) | -0.05
BLVRA (biliverdin reductase A) | -0.56
BLVRA (biliverdin reductase A) | 0.63
